The record followed here is article PMC6053445.

Construct, isoform or probe ends are uncertain for at least one entry. At least one verdict was read from the data and is not stated in words by the source. Protein sequences can lack the tags named with them.

For the series, the target named is T1, Sap1 (Schizosaccharomyces pombe) (UniProt P40847).
T1 sequence (looked up, limits assumed): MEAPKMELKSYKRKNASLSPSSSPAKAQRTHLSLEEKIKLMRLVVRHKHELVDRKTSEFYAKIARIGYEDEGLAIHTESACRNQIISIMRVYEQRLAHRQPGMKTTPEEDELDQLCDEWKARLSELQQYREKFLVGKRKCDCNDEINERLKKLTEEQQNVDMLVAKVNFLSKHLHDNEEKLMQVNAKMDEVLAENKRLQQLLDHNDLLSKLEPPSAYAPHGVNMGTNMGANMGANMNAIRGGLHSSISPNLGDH
Briefly: EMSA. The note with it: Kd not in the text, see Fig. S3B,C; EMSA: protein 0.68-5120 nM (dilution buffer 10 mM HEPES pH 7.5, 100 mM NaCl, 5% glycerol) in 20 mM HEPES pH 7.6, 50 mM KCl, 3 mM MgCl2, 8% glycerol, 0.2% NP-40; recombinant protein; label: 32P. (A gel shift assay detects complexes by their altered migration in electrophoresis.)

Consider “AGCAATACTACACTACGCTATAATACACTACGTTGAGTATCACTATATGT (double strand) [Tf2]”, for which the binding result was “binds”.

As to “AACCAGGGATTCAGTGCAGCTATCTTG (double strand) [Ter1]”, the binding result is “binds”.
